Test results taken from US20240058390A1, “WNT+ ADIPOCYTES, EXOSOMES FROM WNT+ ADIPOCYTES, AND METHODS OF MAKING AND USING THEM” (The Administrators of the Tulane Educational Fund, priority 2020, published 2024).
“Also recorded” adds a separate entry of the source. At least one structure is not confirmed: it was looked up by name or label, or the drawing left a doubt.

Tests used:
Format in all cases: cell-based, mouse
iBAT-derived SVF cells = assay: Adipogenic maturation of SVF-derived adipocytes (Oil Red O staining); conditions: LY294002 2 and 14 μM, dose-dependent
Experimental: (§1) Immortalized cell lines, isolated adipose SVF cells, MEFs, and BMSCs were seeded into plates at the density of 4×10^3 cells/cm^2 (cell line and SVF) or 1.5×10^4 cells/cm2 (BMSCs) in MesenCult™ Expansion medium (Stemcell Technologies Inc., Cambridge, MA, catalog no. 05513), and treated with MesenCult™ Adipogenic Differentiation cocktail (Stemcell, catalog no. 05507) with 90% cell confluence. Cells were cultured for various days after pro-adipogenic induction prior to being harvested for following experiments. Adipogenesis was examined by lipid staining. Briefly, differentiated adipocytes were washed twice with PBS, fixed in 4% paraformaldehyde (PFA) for 15 min, and then stained with Oil Red O solution (Sigma-Aldrich, catalog no. 01391) for 20 min at ambient temperature or with 20 nM BODIPY (dipyrrometheneboron difluoride, catalog no. D3835, Thermo Fisher Scientific) in PBS for 15 min at 37° C. Subsequently, cells were washed with PBS before imaging. […]

[1] = test system: Wnt^+ adipocytes induced from GFPpos-1 and GFPpos-2 cell lines; assay: Treatment of induced Wnt+ adipocytes from GFPpos-1 and GFPpos-2 cell lines (GFP signal, cell death); conditions: LY294002 14 μM
Text: (§2) SVFs of iBAT from adult TCF/Lef:H2B-GFP male mice were separated and collected as described above. Cells at passage 1 were transduced with pUltra-hot-LT LV particles. Two days after transduction, cells were purified by performing FACS to remove mCherry- and Lin+ cells Immortalized cells were subjected to clonal selection through serial limited dilutions. The expression of GFP in cell colonies under pro-adipogenic induction was used as a readout for the accurate establishment of Wnt+ (>95%) and Wnt− (Wnt+=0%) adipocyte cell lines, respectively.
(§3) Immortalized cell lines, isolated adipose SVF cells, MEFs, and BMSCs were seeded into plates at the density of 4×10^3 cells/cm^2 (cell line and SVF) or 1.5×10^4 cells/cm2 (BMSCs) in MesenCult™ Expansion medium (Stemcell Technologies Inc., Cambridge, MA, catalog no. 05513), and treated with MesenCult™ Adipogenic Differentiation cocktail (Stemcell, catalog no. 05507) with 90% cell confluence. Cells were cultured for various days after pro-adipogenic induction prior to being harvested for following experiments. Adipogenesis was examined by lipid staining. […]

Wnt/β-catenin signaling = Wnt/β-catenin signaling activity (TCF/Lef:H2B-GFP reporter) in SVF precursors under pro-adipogenic conditions; conditions: iBAT-derived SVF cells, LY294002 2 and 14 μM, dose-dependent
Experimental: as §1

[2] = test system: Wnt^− adipocytes induced from GFPneg precursor cell lines; assay: Treatment of induced Wnt− adipocytes from GFPneg precursor cell lines (viability, maturation); conditions: LY294002
Text: as §2, §3

Q: What does the source list for `O=c1cc(N2CCOCC2)oc2c(-c3ccccc3)cccc12` [LY294002]?
A: adipogenesis (iBAT-derived SVF cells): blunted adipogenesis; GFP expression in GFPpos-induced Wnt+ adipocytes [1]: eliminated GFP expression; also recorded: diminished GFP signals; cell death of GFPpos-induced Wnt+ adipocytes ([1]; two days): substantial cell death; also recorded: marked cell death; number of Wnt+ adipocytes (Wnt/β-catenin signaling): dramatically reduced number of Wnt^+ adipocytes; survival of GFPneg-derived adipocytes [2]: did not impact the survival
